{"sequences": {"note": "Protein sequences, listed by entry. Tags and fused reporters are not part of them.", "UniProt Q14191, whole entry, looked up": "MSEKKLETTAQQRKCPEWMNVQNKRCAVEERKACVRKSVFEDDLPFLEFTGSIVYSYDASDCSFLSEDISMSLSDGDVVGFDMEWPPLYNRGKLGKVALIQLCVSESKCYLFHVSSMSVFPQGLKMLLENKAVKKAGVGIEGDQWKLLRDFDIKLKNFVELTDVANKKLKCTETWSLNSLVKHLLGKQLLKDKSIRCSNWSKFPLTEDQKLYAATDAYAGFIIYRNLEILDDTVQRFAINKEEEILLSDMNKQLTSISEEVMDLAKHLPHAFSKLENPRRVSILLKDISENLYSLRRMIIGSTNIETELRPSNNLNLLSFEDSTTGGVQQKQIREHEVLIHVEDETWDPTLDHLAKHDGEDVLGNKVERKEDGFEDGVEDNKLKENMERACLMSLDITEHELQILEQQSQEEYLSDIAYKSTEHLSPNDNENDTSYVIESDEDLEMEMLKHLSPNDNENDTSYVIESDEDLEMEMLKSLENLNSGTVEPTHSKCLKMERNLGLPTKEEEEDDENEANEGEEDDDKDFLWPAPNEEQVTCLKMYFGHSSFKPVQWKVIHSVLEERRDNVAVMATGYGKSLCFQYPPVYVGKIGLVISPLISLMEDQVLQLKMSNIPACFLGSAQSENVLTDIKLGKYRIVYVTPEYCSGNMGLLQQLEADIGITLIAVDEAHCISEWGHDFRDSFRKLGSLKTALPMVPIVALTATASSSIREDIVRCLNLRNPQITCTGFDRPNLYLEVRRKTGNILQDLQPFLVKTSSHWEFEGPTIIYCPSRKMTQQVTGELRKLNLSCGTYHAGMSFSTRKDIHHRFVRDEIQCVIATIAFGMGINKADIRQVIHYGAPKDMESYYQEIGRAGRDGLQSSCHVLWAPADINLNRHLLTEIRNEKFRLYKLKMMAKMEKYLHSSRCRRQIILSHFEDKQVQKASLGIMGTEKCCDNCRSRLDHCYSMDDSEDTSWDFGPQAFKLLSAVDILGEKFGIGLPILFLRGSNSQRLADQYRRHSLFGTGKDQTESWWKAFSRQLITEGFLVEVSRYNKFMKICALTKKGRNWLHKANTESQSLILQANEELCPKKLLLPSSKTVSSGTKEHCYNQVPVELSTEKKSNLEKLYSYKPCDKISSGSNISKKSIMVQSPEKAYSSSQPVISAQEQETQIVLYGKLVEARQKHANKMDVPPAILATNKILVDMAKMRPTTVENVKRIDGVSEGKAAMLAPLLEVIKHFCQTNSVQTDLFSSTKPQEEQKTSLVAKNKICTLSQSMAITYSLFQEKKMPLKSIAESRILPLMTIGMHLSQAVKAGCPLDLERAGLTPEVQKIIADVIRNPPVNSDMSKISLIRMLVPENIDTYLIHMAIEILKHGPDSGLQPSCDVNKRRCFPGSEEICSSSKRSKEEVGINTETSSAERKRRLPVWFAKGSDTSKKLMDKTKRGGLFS"}, "source": "PubChem BioAssay AID651768", "about": "(National Center for Advancing Translational Sciences (NCATS), 2012)", "note": "About 1,700 (0.47%) of roughly 360,000 compounds were called active. The inconclusive results got no clear call from the source; some entries with a clear call stand among them for comparison. The call rests on the fitted dose curve; in most records, active means well fitted inhibition curve with a large enough effect; inconclusive means small, poorly fitted or top-dose-only effect; inactive means no such curve, though single readings can be large or run the other way. Potencies of inconclusive entries are doubtful fits and often do not repeat. On the % scale 0 is the no-effect control and ±100 the full control effect; potency means the concentration at half of the fitted maximal effect.", "data": [{"molecular_target": "Bifunctional 3'-5' exonuclease/ATP-dependent helicase WRN (Homo sapiens) (UniProt Q14191)", "experiment": "qHTS for Inhibitors of WRN Helicase; further: nearly all actives have a fitted effect of over 55% in size", "settings": "WRN helicase unwinding, fluorescent forked duplex, kinetic; activity change, negative = inhibition: at 114 µM (top of the series) unless noted", "how_it_was_run": "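Fluorescence dequenching readout, ex 525 nm/em 598 nm, kinetic mode: forked duplex DNA (100 nM final) with adjacent fluorophore and quencher unwound by WRN (20 nM final) with 2 mM ATP. Compound preincubation 15 min, room temperature.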", "values": [{"smiles": "CN1C(=O)C(=Cc2ccccc2OCc2ccccc2Cl)C(=O)N(C)C1=O", "Potency": "inconclusive: 22.4 µM [inhibitor, single point]"}, {"smiles": "COC(C)(C)CCCC(C)C/C=C/C(C)=C/C(=O)OC(C)C", "note": "(stereo unspecified)", "activity change, negative = inhibition": "inactive: 5.68%"}, {"smiles": "O=C(NC1CCCCC1)Oc1cc2oc(=O)sc2cc1Cl", "Potency": "inconclusive: 31.6 µM [inhibitor, partial curve]"}, {"smiles": "Cc1ccc(N2C(=O)/C(=C/N3CCN(C(=O)c4ccco4)CC3)C(=O)NC2=S)cc1C", "Potency": "inconclusive: 100 µM [inhibitor, partial curve, poor fit]"}, {"smiles": "COc1ccc(CN2C(=O)NC(=O)/C(=C/c3ccc(OC)c(OC)c3OC)C2=O)cc1", "Potency": "inconclusive: 50.1 µM [inhibitor, partial curve]"}, {"smiles": "NC(=O)c1ccc(N=Cc2c(O)n(Cc3ccco3)c(=O)[nH]c2=O)cc1", "Potency": "active: 50.1 µM"}, {"smiles": "Cc1ccc(N)cc1N", "activity change, negative = inhibition": "inactive: -2.18%"}, {"smiles": "O=c1[nH]c(=S)[nH]c(O)c1/C=C1\\C=Nc2ccccc21", "Potency": "active: 50.1 µM"}, {"smiles": "Cc1cc(Br)c(NC(=O)CN2CC=C(c3ccccc3)CC2)c(Br)c1", "activity change, negative = inhibition": "inactive: -6.95%"}, {"smiles": "Cn1cccc1/C=C1/C(=O)NC(=O)N(C(C)(C)C)C1=O", "activity change, negative = inhibition": "inactive: -13.3%"}, {"smiles": "CN1C(=O)C(=Cc2ccc(Sc3ccccc3)o2)C(=O)N(C)C1=S", "Potency": "inconclusive: 2.99 µM [inhibitor, partial curve]"}, {"smiles": "Cc1ccccc1-n1c(O)c(/C=C/C=Nc2ccccc2)c(=O)[nH]c1=O", "Potency": "inconclusive: 50.1 µM [inhibitor, partial curve]"}, {"smiles": "O=C1NC(=O)C(=Cc2cccs2)C(=O)N1", "Potency": "inconclusive: 56.2 µM [inhibitor, partial curve]"}, {"smiles": "COc1ccc(/C=C2/C(=O)NC(=S)N(C3CC3)C2=O)cc1CN1C(=O)c2ccccc2C1=O", "Potency": "active: 14.1 µM"}, {"smiles": "CCOC(=O)c1ccc(N=Cc2c(O)n(-c3ccccc3F)c(=S)[nH]c2=O)cc1", "Potency": "active: 79.4 µM"}, {"smiles": "CN(C)c1ccc(/C=C/c2cc[n+](C)c3ccccc23)cc1", "Potency": "active: 35.5 µM"}, {"smiles": "CC(=Nc1ccc(F)cc1)c1c(O)n(C)c(=O)[nH]c1=O", "Potency": "inconclusive: 89.1 µM [inhibitor, single point]"}, {"smiles": "O=C(O)CCn1cc(C=C2C(=O)NC(=O)NC2=O)c(-c2ccc(Br)cc2)n1", "Potency": "inconclusive: 28.2 µM [inhibitor, full curve, poor fit]"}, {"smiles": "O=C1NC(=O)N(c2ccccc2)C(=O)/C1=C\\C=C\\c1ccccc1", "Potency": "active: 31.6 µM"}, {"smiles": "COc1ccc(-n2nnnc2C(c2cccc3ccccc23)N2CCC(n3c(=O)[nH]c4ccccc43)CC2)cc1", "note": "(stereo unspecified)", "activity change, negative = inhibition": "inactive: -2.03%"}, {"smiles": "COC(=O)c1c(NC(=O)C2CC=CCC2C(=O)O)sc2c1CCCCC2", "note": "(stereo unspecified)", "Potency": "inconclusive: 44.7 µM [inhibitor, partial curve]"}, {"smiles": "COc1ccc(N2C(=O)/C(=C/c3cccs3)C(=O)NC2=S)cc1", "Potency": "active: 44.7 µM"}, {"smiles": "O=C1NC(=O)N(c2ccccc2)C(=O)/C1=C\\c1ccccc1[N+](=O)[O-]", "Potency": "inconclusive: 22.4 µM [inhibitor, full curve, poor fit]"}, {"smiles": "Oc1ccc(C[C@H]2NCCc3cc(O)c(O)cc32)cc1O", "Potency": "inconclusive: 79.4 µM [inhibitor, single point]"}, {"smiles": "COc1ccc(N2C(=O)/C(=C/c3ccc(C)o3)C(=O)NC2=S)c(OC)c1", "Potency": "inconclusive: 50.1 µM [inhibitor, partial curve]"}, {"smiles": "CCc1ccccc1N1C(=O)/C(=C/c2ccc(N3CCN(C)CC3)o2)C(=O)NC1=S", "Potency": "active: 50.1 µM"}, {"smiles": "C=CCN1C(=O)NC(=O)/C(=C/c2cnc(SC)nc2)C1=O", "Potency": "inconclusive: 63.1 µM [inhibitor, partial curve, poor fit]"}, {"smiles": "O=C1CCCC2=C1C(c1cccnc1)Nc1ccccc1N2", "note": "(stereo unspecified)", "activity change, negative = inhibition": "inactive: 2.99%"}, {"smiles": "COc1ccc(-n2c(=S)[nH]c3c(sc(=S)n3-c3ccccc3)c2=O)c(OC)c1", "Potency": "inconclusive: 35.5 µM [inhibitor, full curve, poor fit]"}, {"smiles": "CN1C(=O)C(=Cc2sc(=O)n(-c3ccccc3)c2N2CCCCC2)C(=O)N(C)C1=O", "Potency": "inconclusive: 12.6 µM [inhibitor, full curve, poor fit]"}, {"smiles": "COc1ccc(CC2c3cc(OC)c(OC)cc3CCN2C)cc1O", "note": "(stereo unspecified)", "activity change, negative = inhibition": "inactive: 5.54%"}, {"smiles": "CC1(C)OC(c2ccccc2)=C/C(=C/C=C2C(=O)NC(=O)NC2=O)O1", "Potency": "inconclusive: 7.94 µM [inhibitor, partial curve]"}, {"smiles": "Cc1cc(/C=C2\\C(=O)NC(=O)N(c3ccc(Cl)cc3)C2=O)c(C)n1-c1cccc(C(=O)O)c1", "Potency": "inconclusive: 50.1 µM [inhibitor, partial curve]"}, {"smiles": "CCc1ccc(NC2=NCCCS2)cc1", "activity change, negative = inhibition": "inactive: 0.17%"}, {"smiles": "CN(C)CC(C(=O)Cc1ccccc1)c1ccccc1", "note": "(stereo unspecified)", "Potency": "active: 44.7 µM"}, {"smiles": "Cc1ccc(-n2c(O)c(/C=N/NC(=O)c3ccncc3)c(=O)[nH]c2=O)cc1C", "Potency": "inconclusive: 35.5 µM [inhibitor, single point]"}, {"smiles": "COc1ccc(CN2C(=O)NC(=O)/C(=C/c3cc(OC)c(OC)c(OC)c3)C2=O)cc1", "Potency": "active: 44.7 µM"}, {"smiles": "COc1ccc(-n2c(/C=C/c3ccc(O)c(O)c3)nc3ccccc3c2=O)cc1", "Potency": "inconclusive: 35.5 µM [inhibitor, partial curve]"}, {"smiles": "Cc1ccc(N2C(=O)NC(=O)/C(=C\\c3ccc(N4CCOCC4)cc3)C2=O)cc1", "Potency": "inconclusive: 39.8 µM [inhibitor, single point]"}, {"smiles": "O=P(O)(Oc1ccccc1)OC(c1ccccc1)C(F)(F)F", "note": "(stereo unspecified)", "Potency": "inconclusive: 70.8 µM [inhibitor, single point]"}, {"smiles": "O=c1[nH]c(=O)n(Cc2ccco2)c(O)c1/C=N/N1CCCCC1", "Potency": "inconclusive: 56.2 µM [inhibitor, partial curve]"}, {"smiles": "O=C(O)c1ccc(Cl)nc1", "activity change, negative = inhibition": "inactive: -1.82%"}, {"smiles": "CCC(=O)Nc1cc(C(=O)O)ccc1S(=O)(=O)c1ccc(C)cc1", "Potency": "inconclusive: 15 µM [inhibitor, partial curve]"}, {"smiles": "CN1C(=O)/C(=C/c2ccc(Cl)s2)C(=O)NC1=S", "Potency": "active: 14.1 µM"}, {"smiles": "CC[n+]1c(/C=C/N(C)c2ccccc2)sc2ccc(Cl)cc21", "Potency": "active: 50.1 µM"}, {"smiles": "C=CCc1cc(C=C2C(=O)N(C)C(=O)N(C)C2=O)cc(OCC)c1OCc1ccccc1", "Potency": "active: 44.7 µM"}]}]}
